Source: PubChem BioAssay AID1688 (National Center for Advancing Translational Sciences (NCATS), 2009)
The whole screen tested about 220,000 compounds, of which about 2,400 (1.1%) were called active. This list was built around the results that the source calls inconclusive (neither active nor inactive); the mix of calls is not that of the screen. Calls come from the whole dose curve; as a rule, active = well fitted inhibition curve with a large enough effect; inconclusive = small, poorly fitted or top-dose-only effect, or effect the other way; inactive = no such curve, though single readings can be large or run the other way. Potencies of inconclusive entries are doubtful fits and often do not repeat.

Assay: qHTS Multiplex Assay to Identify Dual Action Probes in a Cell Model of Huntington: Aggregate Formation (GFP); note: nearly all actives have a fitted effect of over 60% in size
Details: PC12 HttQ103-GFP aggregates, Acumen cytometry, 40 h; activity change, negative = inhibition: at 46.1 µM (top of the series) unless noted
Outline: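 PC12 cells with ecdysone-inducible HTT exon1 Q103-GFP, induced by 100 nM tebufenozide, given compounds in a concentration series. GFP aggregates (1–25 um, 6 SD above background) counted in lysates by laser-scanning cytometry, 488 nm excitation.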
% is set by controls: 0 for no effect and ±100 for the full control effect; potency is the fitted concentration of half-maximal effect.

With `Cc1cccc(NC(=S)N(C)Cc2cn(C)c3ccccc23)c1` as the compound, how does the Potency read?
Its Potency is inconclusive: 1 µM [inhibitor, full curve, poor fit].

With `O=C(CSc1ncnc2ccccc12)N1CCCC1` as the compound, how does the Potency read?
Its Potency is inconclusive: 35.5 µM [activator, single point].

With `O=C(NNC(=O)C12CC3CC(CC(C3)C1)C2)c1cnccn1` as the compound, how does the Potency read?
Its Potency is inconclusive: 8.91 µM [inhibitor, partial curve].

With `Cc1ccc(NC2CCCCC2NS(=O)(=O)c2ccc(Cl)cc2)cc1` (stereo unspecified) as the compound, how does the “activity change, negative = inhibition” value read?
The value was inactive: 9.62%.

Which Potency does the source give for `O=C(CSc1ccc(Br)c2cccc(Cl)c12)Nc1ccc(S(=O)(=O)Nc2nccs2)cc1` here?
Its Potency is inconclusive: 3.55 µM [activator, single point].

For `CCCn1c(C)cc(C(=O)CSc2nc3ccccc3c(=O)n2Cc2ccco2)c1C`, which Potency is on record?
Its Potency is inconclusive: 7.08 µM [inhibitor, full curve, poor fit].

With `Cc1ccc(-n2c(SCC(=O)N3CCOCC3)nnc2-c2ccncc2)cc1` as the compound, how does the Potency read?
Its Potency is inconclusive: 1 µM [inhibitor, single point].

For `CCCC(Oc1ccc(Br)cc1)c1nc2c3cc(OC)c(OC)cc3nc(=S)n2[nH]1` (stereo unspecified), which Potency is on record?
The Potency was inconclusive: 10 µM [inhibitor, partial curve, poor fit].

Which “activity change, negative = inhibition” value does the source give for `N#Cc1sc2nc(-c3cccs3)cc(-c3ccccc3)c2c1N` here?
The value was inactive: 21.4%.

For `Cc1onc(-c2cccc(Cl)c2Cl)c1C(=O)O/N=C(\N)c1ccc([N+](=O)[O-])o1`, which activity change, negative = inhibition is on record?
Its activity change, negative = inhibition is inactive: 5.96% [at 9.22 µM].

Which “activity change, negative = inhibition” value does the source give for `CCN1C(=O)c2ccccc2S(=O)c2ccc(C(=O)N3CCCC3)cc21` (stereo unspecified) here?
The value was inactive: 0.749%.

For `CN(C/C=C\c1ccccc1)Cc1cccc2ccccc12`, which Potency is on record?
Its Potency is inconclusive: 31.6 µM [inhibitor, single point].

With `COc1ccccc1-c1cc(C(F)(F)F)nc(S(=O)(=O)CCCC(=O)Nc2cccnc2Cl)n1` as the compound, how does the Potency read?
The Potency was inconclusive: 35.5 µM [inhibitor, single point].

For `COc1ccc(/C=C/c2nc(N)nc(-c3ccccc3O)n2)cc1OC`, which Potency is on record?
Its Potency is inconclusive: 22.4 µM [inhibitor, single point].

Which “activity change, negative = inhibition” value does the source give for `NC(=O)C1(N2CCCCC2)CCN(C(=O)CSc2nc(C(F)(F)F)cc(=O)[nH]2)CC1` here?
The value was inactive: -11.7%.

With `COCCNc1nnc(SCC(=O)NNC(=O)c2ccccc2)s1` as the compound, how does the “activity change, negative = inhibition” value read?
Its value is inactive: 0.265%.

With `CCC(O)(CC)C(=O)NN(C(=O)CCl)c1ccccc1` as the compound, how does the Potency read?
The Potency was inconclusive: 35.5 µM [inhibitor, single point].

Which “activity change, negative = inhibition” value does the source give for `O=C(O)c1ccc(-c2ccccc2C(F)(F)F)o1` here?
Its value is inactive: -12.3%.

Which Potency does the source give for `O=C(O)/C=C/C(=O)NC1CCCCC1` here?
The Potency was active: 3.55 µM.

For `CCc1ccccc1NC(=S)N(Cc1ccco1)C(C)c1cccs1` (stereo unspecified), which Potency is on record?
Its Potency is active: 3.98 µM.

With `S=c1[nH]nc(CCc2ccccc2)n1-c1ccc(Cl)cc1` as the compound, how does the “activity change, negative = inhibition” value read?
The value was inactive: 13.4%.

With `COc1ccccc1-n1cnc2cc(C(=O)NCc3ccco3)ccc21` as the compound, how does the “activity change, negative = inhibition” value read?
Its value is inactive: -27.4%.

With `Cc1occc1C(=O)Nc1cccc(C(=O)O)c1` as the compound, how does the Potency read?
The Potency was inconclusive: 0.562 µM [inhibitor, full curve, poor fit].

With `O=C(CSc1nnc(-c2cccnc2)n1C1CCCCC1)NC1CCCC1` as the compound, how does the “activity change, negative = inhibition” value read?
The value was inactive: -4.97%.

With `CCC(=O)Nc1cccc(-c2nnc(SCC(=O)c3ccccc3)n2C)c1` as the compound, how does the Potency read?
The Potency was inconclusive: 3.98 µM [activator, single point].

For `c1csc(CN2CCOCC2)c1`, which Potency is on record?
The Potency was inconclusive: 0.631 µM [inhibitor, full curve].

With `Cc1c(C(=O)N(C)Cc2ccccc2)oc2ccc(S(=O)(=O)N3CCCC3)cc12` as the compound, how does the Potency read?
The Potency was active: 11.2 µM.

With `CCc1cc2c(=O)[nH]c(Cc3ccccc3)nc2s1` as the compound, how does the “activity change, negative = inhibition” value read?
Its value is inactive: -2.66%.

Which activity change, negative = inhibition does the source give for `Cc1onc(-c2ccccc2)c1C(=O)/C=C/N(C)C` here?
Its activity change, negative = inhibition is inactive: -10.3% [at 9.22 µM].

For `CC(C)c1onc(C(=O)NC2CCCC2)c1[N+](=O)[O-]`, which Potency is on record?
The Potency was inconclusive: 35.5 µM [inhibitor, single point].

For `O=C(c1ccccc1)c1coc2c1C(=O)c1ccccc1C2=O`, which Potency is on record?
Its Potency is inconclusive: 22.4 µM [inhibitor, single point].

For `CC(C)CC(NS(=O)(=O)c1cccc(C(=O)O)c1)C(=O)O` (stereo unspecified), which “activity change, negative = inhibition” value is on record?
Its value is inactive: -10.8%.

With `COCCn1c(SCC(=O)/C=C2\N(C)c3ccccc3C2(C)C)nnc1-c1ccncc1` as the compound, how does the Potency read?
Its Potency is inconclusive: 35.5 µM [inhibitor, single point].

Which “activity change, negative = inhibition” value does the source give for `Cc1ccc2c(c1)c1c(n2C)C(C(N)=O)CCC1` (stereo unspecified) here?
The value was inactive: 1.73%.

For `CC(=O)c1ccc(OCC(=O)Nc2ccc3nc(C)sc3c2)cc1`, which Potency is on record?
The Potency was inconclusive: 6.31 µM [activator, partial curve, poor fit].

For `COc1cccc(/C=C(/C#N)c2ccc(Cl)cc2)c1OCc1cccc(C(=O)O)c1`, which “activity change, negative = inhibition” value is on record?
Its value is inactive: -1.59%.

Which Potency does the source give for `C=CC[n+]1c(-c2ccc(C)cc2)csc1NNC(=O)Nc1ccccc1` here?
Its Potency is inconclusive: 7.08 µM [inhibitor, partial curve].

With `Cc1c(-c2cccc(Cl)c2)nc2ccccc2c1C(=O)OC/C(O)=C(\C#N)c1nc2ccccc2[nH]1` as the compound, how does the Potency read?
The Potency was inconclusive: 17.8 µM [inhibitor, single point].

With `CCOC(=O)C1(Cc2cccc(OC)c2)CCN(Cc2cccc3c2OCO3)CC1` as the compound, how does the Potency read?
The Potency was inconclusive: 35.5 µM [inhibitor, single point].

Which Potency does the source give for `COc1ccc(N/N=C(/C(N)=O)C2=NC(C)(C)Cc3ccccc32)cc1` here?
Its Potency is active: 10 µM.

With `COc1ccc(/C=C(/NC(=O)c2ccc([N+](=O)[O-])cc2)C(=O)NC(C)(C)C)cc1` as the compound, how does the “activity change, negative = inhibition” value read?
The value was inactive: 10.4%.

Which Potency does the source give for `Cc1cccc(C)c1N1CCN(C(=O)Nc2ccc3c(c2)OCCO3)CC1` here?
The Potency was inconclusive: 25.1 µM [inhibitor, single point].

For `Cc1cc(C)c2c(=O)n(-c3ccccc3)[nH]c2n1`, which “activity change, negative = inhibition” value is on record?
Its value is inactive: -4.82%.

With `CCOC(=O)c1c(-c2ccsc2)csc1N` as the compound, how does the “activity change, negative = inhibition” value read?
Its value is inactive: -14.2%.

For `COc1ccccc1-c1nc(SCC(=O)NCC2CCCO2)c2c(=O)n(C)c(=O)n(C)c2n1` (stereo unspecified), which “activity change, negative = inhibition” value is on record?
The value was inactive: -8.01%.

For `COc1ccccc1NNC(=O)c1cccnc1Oc1ccccc1`, which activity change, negative = inhibition is on record?
Its activity change, negative = inhibition is inactive: 14.8% [at 9.22 µM].

Which Potency does the source give for `Cc1cccc(/C=N/Nc2ccc3ccccc3n2)c1` here?
Its Potency is inconclusive: 35.5 µM [inhibitor, single point].

For `COc1ccc(NC(=O)CC2C(=O)N(c3ccc(Cl)cc3)C(=S)N2CCc2ccccn2)cc1` (stereo unspecified), which Potency is on record?
Its Potency is inconclusive: 35.5 µM [inhibitor, single point].

Which Potency does the source give for `O=[N+]([O-])c1cc(S(=O)(=O)Nc2cccc(C(F)(F)F)c2)ccc1-n1nnc2ccccc21` here?
Its Potency is active: 11.2 µM.

For `COc1ccc(S(=O)(=O)N2CCN(CCC(=O)Nc3ccccc3F)CC2)cc1`, which Potency is on record?
The Potency was inconclusive: 3.16 µM [activator, single point].

With `COCCn1c(SCC(=O)Nc2ncc(C)s2)nc2sc3c(c2c1=O)CCC3` as the compound, how does the “activity change, negative = inhibition” value read?
Its value is inactive: -22.8%.

Which Potency does the source give for `Clc1ccc(CSCCc2ccncc2)cc1` here?
Its Potency is inconclusive: 15.8 µM [inhibitor, single point].

With `CN(C)c1ccc(/C=C/c2ccc3ccccc3[n+]2C)cc1` as the compound, how does the Potency read?
Its Potency is active: 2.51 µM.

For `COc1cc([N+](=O)[O-])ccc1NC(=O)C[n+]1cccc(C)c1`, which “activity change, negative = inhibition” value is on record?
The value was inactive: 17%.

For `Cc1cccc(C(=O)N=c2c(C#N)cc3c(=O)n4cccc(C)c4nc3n2Cc2ccco2)c1`, which Potency is on record?
The Potency was inconclusive: 5.62 µM [activator, partial curve].

For `Cc1ccc(OCCn2c(Br)nc3c2c(=O)n(C)c(=O)n3C)cc1`, which “activity change, negative = inhibition” value is on record?
The value was inactive: -29.4%.

For `CCN(CC(=O)NCc1ccc(F)cc1)C(=O)/C=C/c1cccs1`, which “activity change, negative = inhibition” value is on record?
Its value is inactive: 2.85%.

Which Potency does the source give for `COc1cccc(-n2nc(C#N)c(Cl)cc2=O)c1` here?
Its Potency is active: 3.55 µM.

With `Cc1c(C(=O)N2CCCCC2C)sc2ncnc(N3CCc4ccccc4C3)c12` (stereo unspecified) as the compound, how does the “activity change, negative = inhibition” value read?
Its value is inactive: -26.6%.

For `Cc1nnsc1C(=O)Nc1cccc(Cl)c1Cl`, which Potency is on record?
The Potency was inconclusive: 8.91 µM [activator, partial curve].

With `O=C(NC(=S)NC1CC1)c1cccnc1` as the compound, how does the Potency read?
The Potency was inconclusive: 5.62 µM [inhibitor, single point].

Which Potency does the source give for `CCOc1ccc(OCC)c(NC(=O)CN2CCN(c3cccc(C)c3)C(C)C2)c1` (stereo unspecified) here?
The Potency was inconclusive: 22.4 µM [inhibitor, single point].

For `C=CCN1C(=O)N/C(=C/c2ccc(N3CCOCC3)o2)C1=O`, which Potency is on record?
The Potency was active: 5.01 µM.

Which Potency does the source give for `N#Cc1cc([N+](=O)[O-])cnc1N(CCO)CCO` here?
Its Potency is active: 12.6 µM.

For `CCc1nnc(NC(=O)CSc2nnc(-c3cc4ccccc4cc3O)n2CCOC)s1`, which Potency is on record?
Its Potency is inconclusive: 0.562 µM [activator, full curve, poor fit].

Which Potency does the source give for `Cc1cc(C(=O)CSc2nc(N)cc(=O)[nH]2)c(C)n1CCc1ccc(Cl)cc1` here?
Its Potency is inconclusive: 11.2 µM [inhibitor, partial curve].

Which Potency does the source give for `CCN(CC)C(=O)c1sc(NC(=O)c2ccc(C)c([N+](=O)[O-])c2)c(C#N)c1C` here?
Its Potency is active: 12.6 µM.

For `O=C(Cc1c(Cl)cccc1Cl)OCC(=O)N1CCN(C(=O)c2ccco2)CC1`, which “activity change, negative = inhibition” value is on record?
The value was inactive: 8.46%.

Which Potency does the source give for `Cc1ccc(NC(=O)CC2C(=O)N(Cc3ccccc3)C(=S)N2NC(=O)c2ccccc2)c(C)c1` (stereo unspecified) here?
The Potency was inconclusive: 8.91 µM [activator, partial curve].

For `CC(=O)c1cc(O)c2ccccc2c1O`, which activity change, negative = inhibition is on record?
The activity change, negative = inhibition was inactive: -12.3% [at 9.22 µM].

Which Potency does the source give for `Cc1cc(C)c(NC(=O)CSc2nc3ccc(NC(=O)CSc4nnnn4-c4ccccc4)cc3s2)c(C)c1` here?
The Potency was active: 10 µM.

For `COc1ccc(C(C)(C)C)cc1NC(=O)c1c(C)noc1C`, which Potency is on record?
Its Potency is active: 0.562 µM.

With `CN(C)c1ccc(/C=N/Nc2cc(N3CCOCC3)nc(N3CCOCC3)n2)cc1` as the compound, how does the Potency read?
Its Potency is inconclusive: 5.62 µM [activator, single point].

With `O=C(c1ccc([N+](=O)[O-])cc1)N(C1=NCCCCS1)c1ccccc1` as the compound, how does the Potency read?
Its Potency is inconclusive: 3.55 µM [activator, partial curve].

With `CC1CC(C)CN(C(=O)c2cc3cc(Br)cc(Br)c3o2)C1` (stereo unspecified) as the compound, how does the Potency read?
Its Potency is inconclusive: 35.5 µM [inhibitor, single point].

With `O=C(Nc1cnn(Cc2ccc(Cl)c(Cl)c2)c1)C12CC3CC(CC(C3)C1)C2` as the compound, how does the Potency read?
The Potency was inconclusive: 31.6 µM [inhibitor, single point].
